Here are results for two substances from article doi:10.1101/2023.05.29.23290174.

By UniProt entry, the sequences of proteins in these tests, tags left out. Where a name states a change or a piece, a line headed by the entry shows the natural chain unless it says otherwise. Chains listed by the source or under a name are the forms on record and can include a tag or linker.
UniProt P48436: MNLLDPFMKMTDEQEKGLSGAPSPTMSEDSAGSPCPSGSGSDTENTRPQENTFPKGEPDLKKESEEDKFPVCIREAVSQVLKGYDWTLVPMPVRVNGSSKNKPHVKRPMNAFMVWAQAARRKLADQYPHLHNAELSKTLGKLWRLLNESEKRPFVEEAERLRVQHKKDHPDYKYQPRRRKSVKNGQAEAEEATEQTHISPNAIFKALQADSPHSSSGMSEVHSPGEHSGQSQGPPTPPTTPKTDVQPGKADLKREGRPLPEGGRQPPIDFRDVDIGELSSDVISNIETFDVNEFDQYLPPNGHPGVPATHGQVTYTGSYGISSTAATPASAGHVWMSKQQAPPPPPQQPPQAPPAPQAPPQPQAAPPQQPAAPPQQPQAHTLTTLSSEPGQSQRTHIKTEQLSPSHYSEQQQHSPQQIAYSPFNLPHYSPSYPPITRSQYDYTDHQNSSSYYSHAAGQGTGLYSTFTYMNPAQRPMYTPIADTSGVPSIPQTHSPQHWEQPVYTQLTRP
SOX9 Ile73Thr variant (P48436, form named): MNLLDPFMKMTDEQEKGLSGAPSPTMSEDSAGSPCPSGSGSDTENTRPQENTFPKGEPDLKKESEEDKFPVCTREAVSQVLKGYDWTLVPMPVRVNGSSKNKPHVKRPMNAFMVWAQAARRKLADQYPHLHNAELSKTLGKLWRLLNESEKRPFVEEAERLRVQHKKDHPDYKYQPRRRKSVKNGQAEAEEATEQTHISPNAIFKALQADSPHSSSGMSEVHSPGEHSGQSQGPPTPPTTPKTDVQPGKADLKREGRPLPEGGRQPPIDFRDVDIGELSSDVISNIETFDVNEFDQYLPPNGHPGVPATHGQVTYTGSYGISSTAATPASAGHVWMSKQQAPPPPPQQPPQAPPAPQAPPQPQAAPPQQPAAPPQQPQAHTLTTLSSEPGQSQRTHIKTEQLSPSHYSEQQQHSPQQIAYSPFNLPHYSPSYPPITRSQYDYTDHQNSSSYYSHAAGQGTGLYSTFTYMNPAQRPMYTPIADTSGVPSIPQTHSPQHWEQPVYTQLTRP

Results are given in words; binding and its absence hold for the method and conditions named. Some entries that bind do so weakly or less than the wild type.

The target of test [1] is SOX9 (SRY-Box 9), wild type (human) (UniProt P48436). As to the kind of experiment: native gel or EMSA. In general terms: In EMSA bound probe runs differently from free probe, usually more slowly.
The target in test [2] is SOX9 Ile73Thr variant (human) (UniProt P48436). The test can be described thus: native gel or EMSA.

Consider “SOX9 (SRY-Box 9), wild type (from UniProt P48436 1-509)”, for which the binding result in test [1] was “binds”. Consider “SOX9 Ile73Thr variant (from UniProt P48436 1-509)”, for which the binding result in test [2] was “no binding”.
